No constants are given. Whether binding was seen depends on the method and setting. Some results given as binding are weak or reduced against the parent protein; the word gives no strength.
Biological target: FLAG-tagged full-length OPTN-IVD-NEMO expressed in 293T NEMO knockout cells (human) (UniProt Q9Y6K9)
Assay: non-reducing SDS-PAGE of disulfide-bonded dimers; lysates of transfected 293T NEMO KO cells in non-ionic detergent buffer; SDS sample buffer without β-mercaptoethanol, not boiled; anti-NEMO Western blot

The chains behind the UniProt entries cited, without tags or fusion partners. Where a name states a change or a piece, a line headed by the entry shows the natural chain unless it says otherwise. A line that says so, or that is headed by a name, gives the form on record, which may keep a tag or linker.
FLAG-tagged full-length OPTN-IVD-NEMO expressed in 293T NEMO knockout cells (Q9Y6K9, form named): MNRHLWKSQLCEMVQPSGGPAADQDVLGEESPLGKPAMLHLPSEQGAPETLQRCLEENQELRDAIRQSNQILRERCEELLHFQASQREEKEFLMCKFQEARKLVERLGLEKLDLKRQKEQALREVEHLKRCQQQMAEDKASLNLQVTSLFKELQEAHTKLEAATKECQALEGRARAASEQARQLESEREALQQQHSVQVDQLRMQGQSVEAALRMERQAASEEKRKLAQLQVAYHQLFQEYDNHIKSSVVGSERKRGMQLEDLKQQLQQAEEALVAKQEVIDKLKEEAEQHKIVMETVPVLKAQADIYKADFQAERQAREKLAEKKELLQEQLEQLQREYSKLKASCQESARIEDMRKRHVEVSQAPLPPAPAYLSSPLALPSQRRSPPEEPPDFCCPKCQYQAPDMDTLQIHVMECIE

binding: binds
Substance: FLAG-tagged full-length OPTN-IVD-NEMO expressed in 293T NEMO knockout cells (from UniProt Q9Y6K9 1-419)

From publication doi:10.1101/2023.05.25.542299
